Patent publication US8404664B2, “Phosphonated Rifamycins and uses thereof for the prevention and treatment of bone and joint infections” (Targanta Therapeutics, Inc., priority 2005, dated 2013)
For part of these data: At least one compound was matched to its structure with a doubt left. Some results were stated once for a whole list of compounds, not compound by compound.

system: S. aureus ATCC 13709; experiment: Antibacterial susceptibility (MIC) in the presence of serum; type: cell-based; details: 50% mouse or rat serum versus no serum
Experimental: Susceptibility of S. aureus strains to the known antibiotics and synthesized compounds was determined by following the guidelines set by NCCLS (M26-A). Compounds were diluted two-fold serially in DMSO and transferred to cation-adjusted Mueller Hinton broth (CAMHB; Becton Dickinson). 50 μL of compounds diluted in CAMHB was mixed with 100 μL of bacteria diluted in CAMHB in 96-well microtiter plates. The final concentration of micro-organisms in the assay was 5×10^5 c.f.u. per mL and the final concentration of DMSO in the assay was 1.25%. Assays were set up in duplicate and incubated at 37° C. for 18 h. The lowest concentration of compound that inhibited visible growth was reported as the minimum inhibitory concentration (MIC).
Susceptibility testing experiments were also carried out in the presence of serum.
These experiments were carried out similar to the susceptibility testing with the following modifications. 75 μL of compounds diluted in CAMHB was mixed with 75 μL of bacteria diluted in 100% serum from any given source (commercial pooled mouse serum (MS) and human serum (HS), Equitech-Bio Inc.) or diluted in 8% purified human serum albumin (HSA) (Calbiochem). The final concentration of animal serum in the assay was 50% and the final concentration of purified human serum albumin in the assay was 4%; the concentrations of all other components were identical to those described for susceptibility testing.

Compound	Increase of MIC in the presence of serum
CO[C@H]1/C=C/O[C@@]2(C)Oc3c(C)c(O)c4c(=O)c(c5oc6cc(N7CCC(O)CC7)cc(O)c6nc-5c4c3C2=O)NC(=O)/C(C)=C\C=C\[C@H](C)[C@H](O)[C@@H](C)[C@@H](O)[C@@H](C)[C@H](OC(C)=O)[C@@H]1C [Compound 63, 1′,4-Didehydro-1-deoxy-1,4-dihydro-3′-hydroxy-5′-[4-hydroxy-1-piperidinyl]-1-oxorifamycin VIII]	> 4 ×
CO[C@H]1/C=C/O[C@@]2(C)Oc3c(C)c(O)c4c(=O)c(c5oc6cc(N7CCNCC7)cc(O)c6nc-5c4c3C2=O)NC(=O)/C(C)=C\C=C\[C@H](C)[C@H](O)[C@@H](C)[C@@H](O)[C@@H](C)[C@H](OC(C)=O)[C@@H]1C [Compound 69, 1′,4-Didehydro-1-deoxy-1,4-dihydro-3′-hydroxy-5′-[1-piperazinyl]-1-oxorifamycin VIII]	> 4 ×
CO[C@H]1/C=C/O[C@@]2(C)Oc3c(C)c(O)c4c(O)c(c(/C=N/N5CCN(C)CC5)c(O)c4c3C2=O)NC(=O)/C(C)=C\C=C\[C@H](C)[C@H](O)[C@@H](C)[C@@H](O)[C@@H](C)[C@H](OC(C)=O)[C@@H]1C [Rifampicin, reference compound]	> 4 ×
CO[C@H]1/C=C/O[C@@]2(C)Oc3c(C)c(O)c4c(=O)c(c5oc6cc(N7CCN(CC(C)C)CC7)cc(O)c6nc-5c4c3C2=O)NC(=O)/C(C)=C\C=C\[C@H](C)[C@H](O)[C@@H](C)[C@@H](O)[C@@H](C)[C@H](OC(C)=O)[C@@H]1C [Rifalazil, 1′,4-Didehydro-1-deoxy-1,4-dihydro-3′-hydroxy-5′-[4-(2-methylpropyl)-1-piperazinyl]-1-oxorifamycin VIII, reference compound]	> 4 ×
CO[C@H]1/C=C/O[C@@]2(C)Oc3c(C)c(O)c4c(=O)c(c5oc6cc(N7CCN(CCO)CC7)cc(O)c6nc-5c4c3C2=O)NC(=O)/C(C)=C\C=C\[C@H](C)[C@H](O)[C@@H](C)[C@@H](O)[C@@H](C)[C@H](OC(C)=O)[C@@H]1C [Compound 56, 1′,4-Didehydro-1-deoxy-1,4-dihydro-3′-hydroxy-5′-[4-(2-hydroxyethyl)-1-piperazinyl]-1-oxorifamycin VIII]	> 4 ×

system: S. aureus (chronic bone infection); experiment: Treatment of chronic osteomyelitis caused by S. aureus in rat model; type: in vivo; details: 20 mg/kg sc once daily, 15th to 28th day after infection; FIG. 6
From the text: To appraise the ability of bisphosphonated prodrugs of Rifamycin derivatives in treating chronic bone infections, a comparison was made between parent compounds 9, 56, 69, rifabutin and rifalazil (all of which are non-bisphosphonated rifamycin derivatives), and their corresponding bisphosphonated prodrugs, respectively 11, 62, 71, 36 and 81, when used to treat chronically (14- to 28-day) infected rats for 4 weeks of antimicrobial therapy.
In this experiment, rats were infected as described in Example 4 and treated with either 20 mg/kg of body weight of the specific rifamycin derived antibacterial agent subcutaneously, or a molar equivalent dose of its bisphosphonated prodrug intravenously according to the indicated schedule after instillation of bacteria. […] The rats were humanely sacrificed at the conclusion of the experiment and the bacterial titers in the infected tibiae were determined.
This experiment was performed with 20 mg/kg of body weight of rifamycin derivative 9 subcutaneously or with 32 mg/kg of its prodrug 11 (corresponding to 20 mg/kg of 9) intravenously on each of the 20th, 24th, 28th, 32nd, 36th, 40th and […] days (q4 days) after instillation of bacteria. […] The rats were humanely sacrificed on the 48th day after the initiation of infection and the bacterial titers in the infected tibiae were determined. […]

Compound	Effect on bacterial titer in bone (in words)
CO[C@H]1/C=C/O[C@@]2(C)Oc3c(C)c(O)c4c(O)c(c(/C=N/N5CCN(C)CC5)c(O)c4c3C2=O)NC(=O)/C(C)=C\C=C\[C@H](C)[C@H](O)[C@@H](C)[C@@H](O)[C@@H](C)[C@H](OC(C)=O)[C@@H]1C [Rifampicin, reference compound]	large, statistically significant decrease
